According to patent publication US20110263817A1, “METAL-BINDING COMPOUNDS AND USES THEREFOR” (priority 1999, published 2011):
At least one peptide structure holds a part that was inferred or is arguable (an end, a ring closure or a residue). Some of these results come from one statement about several compounds together. Non-standard residues stand in square brackets, D forms with d. Residues, ends and D or L forms follow the SMILES beside them.

Key:
Raji cells = assay: DNA damage in Raji cells treated with CuCl2 and ascorbic acid; format: cell-based; settings: copper to peptide ratio 1:2 (peptide:Cu 2:1) (FIG. 21)
[1] = test system: human umbilical vein endothelial cells (HUVEC); assay: Copper-induced IL-8 secretion from HUVEC (ELISA); format: cell-based; settings: 24 hours
Procedure: Human umbilical vein endothelial cells (HUVEC) (5.0×10^4 cells) were incubated in serum-free and ascorbate-free endothelial cell basal medium-2 (EGM2) medium (BioWhittaker) with ITS supplement with (i) copper, (ii) a tetrapeptide analogue of the high-affinity, N-terminal Cu(II) binding site of human albumin (D-Asp D-Ala D-His D-Lys or d-DAHK), or (iii) both of them (n=3, in duplicate). IL-8 was determined by ELISA (see Example 13). […] Upon visual examination, all cells appeared to be viable at 24 hours.

[2] = Inhibition of hydroxyl radical production by peptides, Cu(II)/ascorbic acid deoxyribose/TBA assay, Example 16; format: biochemical
Procedure: The ability of the peptides listed in Table 14 to inhibit the generation of hydroxyl radicals was tested. Hydroxyl radicals were generated by mixing Cu(II) and ascorbic acid. When deoxyribose was added, the hydroxyl radicals, if present, attacked the deoxyribose to produce fragments. Heating the fragments at low pH produced malonaldehyde that, upon the addition of 2-thiobarbituric acid (TBA), yielded a pink chromogen which was measured spectrophotometrically at 532 nm. Thus, absorbance at 532 nm is a measure of the damage to deoxyribose and, therefore, of hydroxyl radical formation.
To perform the assay, (a) 50 μl of 200 μM CuCl2 in water, (b) water or enough of one of the test peptides in water (total volume of 150 μl) to give peptide:copper ratios of 1:4, 1:2, 1:1, 2:1, 4:1, 6:1 and 8:1, and (c) 525 μl buffer (20 mM KH2PO4 buffer, pH 7.4) were added to test tubes. The test tubes were incubated for 15 minutes at room temperature. Then, 25 μl of 20 mM ascorbic acid in buffer and 250 μl of 7.5 mM 2-deoxy-D-ribose in water were added to each test tube, and the test tubes were incubated for 1 hour at 37° C. Finally, 1 ml of 1% (w/v) TBA in 50 mM NaOH and 1 ml of glacial acetic acid were added to each test tube, and the test tubes were incubated in boiling water for 15 minutes. After the test tubes had cooled for 15 minutes, the absorbance at 532 nm was read. The results are presented in attached FIGS. 26A-V.

[3] = test system: focal ischemic infarcts in Wistar rats; assay: Brain ischemia model, middle cerebral artery (MCA) occlusion 2 h with reperfusion; format: in vivo, rat; design: key: 0: normal; 1: failure to extend contralateral (left) forepaw fully (amild focal neurologic deficit); 2: circling to the left (a moderate focal neurologic deficit); 3: falling to the left (a several focal neurologic deficit); 4: no spontaneous gait and depressed level of consciousness; settings: individual animals #1, #3, #5, #7
telomere DNA = assay: TeloTAGG Telomere Length Assay (Southern blot) after copper/ascorbate; format: biochemical
[4] = test system: isolated blood-perfused rat heart; assay: Langendorff reperfusion model, isolated blood-perfused rat heart, 30 min global ischemia / 40 min reperfusion; format: in vivo; settings: versus saline control, significant at every time point
[5] = test system: genomic DNA isolated from Raji cells; assay: ROS-induced double strand breaks in isolated genomic DNA (CuCl2 + ascorbic acid); format: biochemical; settings: for attenuation of ROS-induced DNA double strand breaks: CuCl2 + ascorbic acid, peptide 50-200 μM (FIG. 20)
[6] = Cu(II)/ascorbic acid hydroxyl radical generation, 2-deoxy-D-ribose/TBA assay, Example 7; format: biochemical
[7] = Oxidation of CoA by Cu(II), free thiol groups by DTNB (A412); format: biochemical
[8] = Inhibition of hydroxyl radical production, Cu(II)/ascorbic acid deoxyribose/TBA assay, Example 10; format: biochemical
Procedure: The ability of the compounds listed above to inhibit the generation of hydroxyl radicals was tested as described in Gutteridge and Wilkins, Biochim. Biophys. Acta, 759:38-41 (1983). Briefly, Cu(II) and ascorbic acid were mixed causing the generation of hydroxyl radicals. Then, deoxyribose was added, and the hydroxyl radicals, if present, attacked the deoxyribose to produce fragments. […]. Thus, absorbance at 532 nm is a measure of the damage to deoxyribose and, therefore, of hydroxyl radical formation.
To perform the assay, CuCl2 in buffer (20 mM KH2PO4 buffer, pH 7.4) and either one of the test compounds in buffer or buffer alone were added to test tubes (final concentration of CuCl2 was 10 μM). The test tubes were incubated for 15 minutes at room temperature. Then, 0.5 mM ascorbic acid in buffer and 1.9 mM 2-deoxy-D-ribose in buffer were added to each test tube, and the test tubes were incubated for 1 hour at 37° C. Finally, 1 ml of 1% (w/v) TBA in 50 mM NaOH and 1 ml of concentrated acetic acid were added to each test tube, and the test tubes were incubated in boiling water for 15 minutes. After the test tubes had cooled for 15 minutes, the absorbance at 532 nm was read.
Histidine and several peptides with histidine in different positions were tested at 1:1 and 2:1 peptide:copper ratios for their ability to inhibit the production of hydroxyl radicals. Also, a peptide having an acetylated aspartic acid (Ac-Asp) as the N-terminal amino acid was also tested. In Table 11, the % inhibition is the percent decrease in absorbance compared to buffer alone divided by the absorbance of the buffer alone.

Jurkat cells = assay: IL-8 release by Jurkat cells exposed to copper and ascorbic acid (ELISA); format: cell-based, human; settings: CuCl2 + ascorbic acid, 24 hours (FIGS. 24A-C)
plasmid pBR322DNA = assay: Protection of plasmid DNA from copper/ascorbate strand breaks (agarose gel); format: biochemical
[9] = test system: chorioallantoic membranes of fertilized eggs; assay: Inhibition of angiogenesis in chorioallantoic membranes of fertilized eggs; format: in vivo; settings: for No. Eggs Exhibiting Angiogenesis: 6 eggs, 7 days
[10] = Fe(II) binding by mass spectometry
[11] = 2:1 peptide:copper ratio (FIGS. 26T and U, Examples 7 and 10)

For `C[C@@H](NC(=O)[C@H](N)CC(=O)O)C(=O)N[C@H](Cc1c[nH]cn1)C(=O)N[C@H](CCCCN)C(=O)O` [D-Asp D-Ala D-His D-Lys] (H-[dD][dA][dH][dK]-OH), the “protection of DNA in cell samples” value (Raji cells; listed as D-Asp Ala His Lys) was “complete protection”, the “protection of DNA in cell samples” value (Raji cells; listed as D-tetrapeptide) was “completely protected” and the “decreased IL-8 secretion compared to controls” value ([1]; 100 μM d-DAHK alone, P=0.16) was “not significant”. For the same compound, the “inhibition of IL-8 secretion” value ([1]; d-DAHK:copper 1:1 molar ratio, P=0.007) was 86.1%, the “inhibition of IL-8 secretion” value ([1]; d-DAHK:copper 2:1 molar ratio, P=0.002) was 102.4% and the “inhibition of hydroxyl radical production” value [2, 11] was “greater than 95%”. The “inhibition of hydroxyl radical production” value ([2]; peptide:copper ratios of 2:1 or less) was “effectively inhibited hydroxyl radical production”, the “Neurological Scale, Day 0” value ([3]; day of ischemia surgery (1 hour after reperfusion)) was 2 and the “Neurological Scale, Day 1” value ([3]; one day after ischemia surgery (24 hours after reperfusion)) was 1. The “protection of the telomere” value (telomere DNA; DNA and cell samples treated with copper and ascorbic acid (FIGS. 22, 23)) was “protected the telomere from copper-mediated damage”, the telomere length protection (telomere DNA; ratio of 2:1 (peptide:Cu)) was “complete telomere length protection” and the “left ventricular end diastolic pressure (LVEDP) during reperfusion” value [4] was “normalized their LVEDP more quickly and more completely”. For the same compound, the “attenuation of ROS-induced DNA double strand breaks” value ([5]; listed as D-Asp Ala His Lys) was “attenuated by D-Asp Ala His Lys in a dose dependent manner”, the “attenuation of ROS-induced DNA double strand breaks” value ([5]; listed as D-Asp-Ala-His-Lys) was “attenuated DNA strand breaks in a dose dependent manner” and the “double strand breaks in isolated genomic DNA” value ([5]; copper to peptide ratio 1:4 (peptide:Cu 4:1), listed as D-Asp Ala His Lys) was “no strand breaks were detected”. The “double strand breaks in isolated genomic DNA” value ([5]; copper to peptide ratio 1:4 (peptide:Cu 4:1), listed as D-tetrapeptide) was “complete protection of isolated DNA”, the “double strand breaks in isolated genomic DNA” value ([5]; molar ratios copper to peptide 1:1 (50 μM:50 μM) and 1:2) was “some strand breaks were apparent” and the “inhibition of hydroxyl radical production” value ([6]; Cu(II):D-tetrapeptide ratio 1:2 or higher) was “total inhibition”. The “inhibition of hydroxyl radical generation” value ([6]; Cu(II):D-tetrapeptide ratio between 4:1 to 4:7) was “little to no inhibition”.
In the case of `C[C@H](NC(=O)[C@@H](N)CC(=O)O)C(=O)N[C@@H](Cc1c[nH]cn1)C(=O)N[C@@H](CCCCN)C(=O)O` [L-Asp L-Ala L-His L-Lys] (H-DAHK-OH), the “protection of CoA from oxidation” value ([7]; 1:1 tetrapeptide:Cu(II) ratio) was “some protection”, the “protection of CoA from oxidation” value ([7]; 2:1 tetrapeptide:Cu(II) ratio) was 100% and the A412 ([7]; tube 1: Asp Ala His Lys 190 μM, CoA 190 μM, CuCl2 190 μM, CoA+CuCl2 without peptide 0.127, CoA alone 0.888) was 0.279. It also gave an A412 ([7]; tube 2: Asp Ala His Lys 190 μM, CoA 190 μM, no CuCl2) of 1.119, an A412 ([7]; tube 5: Asp Ala His Lys 190 μM only) of 0.142 and an A412 ([7]; tube 6: Asp Ala His Lys 190 μM, CuCl2 190 μM, no CoA) of 0.113. For the same compound, the A412 ([7]; tube 7: Asp Ala His Lys 190 μM, CoA 190 μM, CuCl2 50 μl (85 μM)) was 1.111, the “prevention of the formation of TBA-reactive species” value ([8]; tetrapeptide/copper 2:1, pH 6.0) was “ineffective” and the “formation of TBA-reactive substances, time course” value ([8]; tetrapeptide/copper ratio of 1:1 (FIG. 15A)) was “slowed the production of TBA-reactive substances”. For the same compound, the “formation of TBA-reactive substances, time course” value ([8]; tetrapeptide/copper ratio of 2:1 (FIG. 15A)) was “prevented all formation of TBA-reactive substances”, the “inhibition of the formation of hydroxyl radicals” value ([8]; tetrapeptide/copper ratios less than 2:1) was “ineffective” and the “inhibition of the formation of hydroxyl radicals” value ([8]; tetrapeptide/copper ratios of 2:1 or higher) was “complete inhibition”. The “release of IL-8” value (Jurkat cells) was “inhibited the release of IL-8”, the “inhibition of hydroxyl radical production” value [2, 11] was “greater than 95%” and the “prevention of the formation of DNA strand breaks” value (plasmid pBR322DNA; 50 μM CuCl2, 2.5 mM ascorbate, tetrapeptide 0-200 μM (FIG. 18)) was “very effective at preventing the formation of DNA strand breaks”. The “DNA forms on the gel” value (plasmid pBR322DNA; tetrapeptide:copper ratios of 1:1 or less) was “nicked circular DNA, linear DNA and more damaged DNA (smears) were visible”, the “No. Eggs Exhibiting Angiogenesis” value ([9]; Group B: 100 μl of 7.0 mg/ml injected into the yolk) was 2 and the “No. Eggs Exhibiting Angiogenesis” value ([9]; Group C: 100 μl of 3.5 mg/ml injected into the yolk) was 1. For the same compound, the “eggs that did not develop a vascular system” value ([9]; groups B and C together, twelve eggs, controls three of twelve, statistically significant) was “Nine of the twelve eggs” and the “binding of Fe(II)” value [10] was “bind Fe(II)”.
In the case of “Asp Ala His Lys-NH2 (DAHK; printed: Asp Ala His Lys-)”, the “inhibition of hydroxyl radical production” value [2, 11] was “greater than 95%”.
